Laboratory results as given in patent US20260216355A1, “ANTIBODY-DRUG CONJUGATE FROM N-OXYCYCLOALKYL SUBSTITUTED CAMPTOTHECIN DERIVATIVE” (priority 2022, published 2026).
Some entries share one result that the patent states for a list of compounds.

Experiments:
[1] = test system: breast cancer cells MDA-MB-231; assay: In vitro inhibitory activity of ADC against tumor cell growth (CCK-8), MDA-MB-231; assay type: cell-based, Human; settings: MDA-MB-231 cells; bound stated
Excerpt: (§1) Method for in vitro inhibitory activity assay of ADC: Human esophageal cancer cells OE-33, lung cancer cells NCI-H1975, and breast cancer cells MDA-MB-231 used for activity assays were respectively cultured in RPMI1640 (Cellmax), RPMI1640 (Cellmax), and DMEM (Cellmax) media containing 10% fetal bovine serum (FBS, Cellmax) to the exponential growth phase. After trypsinization, the cells were centrifuged, and the supernatant was discarded. The cells were resuspended with media and diluted to 3×10^4 cells/mL, 0.5×10^4 cells/mL and 1.5×10^4 cells/mL respectively. Then, 100 μL of each cell suspension was added to a 96-well cell culture plate, and the plate was returned to an incubator at 37° C. with 5% CO2 for overnight culture. The next day, the ADC to be tested was diluted to 2000 nM, 400 nM, 80 nM, 16 nM, 3.2 nM, 0.64 nM, 0.128 nM, and 0.026 nM using culture medium. The diluted ADC was added to a 96-well cell culture plate at 100 μL per well, with 3 replicates set for each concentration. […] After incubation, the plate was removed, protected from light, placed in a microplate reader, and the absorbance was measured at a test wavelength of 450 nm with a reference wavelength of 630 nm. Based on the absorbance values, the IC50 (Table 1) was calculated using four-parameter regression in GraphPad. […]

[2] = test system: Human esophageal cancer cells OE-33; assay: In vitro inhibitory activity of ADC against tumor cell growth (CCK-8), OE-33; assay type: cell-based; settings: OE-33 cells; bound stated
Excerpt: as §1

[3] = test system: lung cancer cells NCI-H1975; assay: In vitro inhibitory activity of ADC against tumor cell growth (CCK-8), NCI-H1975; assay type: cell-based, Human; settings: bound stated
Excerpt: as §1

Measured: IC50

7-(N-(IP140B-mc-Val-Cit-PABC), N-(tetrahydropyran-4-yl)amino)ethyl-10,11-methylenedioxycamptothecin [ADC 2]
< 50 nM: all assays above
